4 substances from paper PMC6255327 (Molecules, 2009) can be followed below.

This series is described as follows: general procedure: solution-phase peptide synthesis; DCC/HOSu; (Boc)Phe 2,4,5-trichlorophenyl ester. Conditions: coupling step, hydrochloride.
Substance “N,N',N,N’-tetrakis(Boc-L-phenylalanyl-3-aminopropyl)-L-α,δ-diaminobutanol” gave a step yield of 71%.
Substance “N,N',N,N’-tetrakis(Boc-L-phenylalanyl-3-aminopropyl)-L-α,δ-diaminopentanol” registered a step yield of 54%.
For “N,N',N,N’-tetrakis(Boc-L-phenylalanyl-3-aminopropyl)-L-α,δ-diaminopropanol”, the step yield turned out to be 66%.
As to “N,N',N,N’-tetrakis(Boc-L-phenylalanyl-3-aminopropyl)-L-α,ε-diaminohexanol”, the step yield is given as 73.5%.
